System: STZ diabetic (mRen-2)27 rats
Experiment: Diabetic (mRen-2)27 rats treated with FT011
Assay type: in vivo
Conditions: 16 weeks
[1] = diabetic rats + FT011 100 mg/kg bid gavage
[2] = non-diabetic control rats + FT011 100 mg/kg bid gavage

`C#CCOc1ccc(/C=C/C(=O)Nc2ccccc2C(=O)O)cc1OC` [Analogue 11] was tested, and the “Body Weight” value [1] was 278 ± 12 Gram, the “Plasma Glucose” value [1] was 30 ± 1.5 mmol/L and the “Body Weight” value [2] was 309 ± 7 Gram. The “Plasma Glucose” value [2] was 7 ± 0.2 mmol/L.

Source: patent US9561201B2, “Therapeutic compounds” (Fibrotech Therapeutics Pty Ltd, priority 2006, dated 2017)
